# Measurements published in the supplement of paper PMC5949888.
# Most values lie at the floor of the assay. Slopes are relative: functional sequences can read slightly below zero.
# System: Saccharomyces cerevisiae PS128 hsf1 delta, HSF1(1-493) fusion
# Experiment: growth estimate (transactivation domain function in HSF1 fusion, heat-shock survival) (a.u. (slope of normalised read count over time)); higher = stronger growth at 37°C, i.e. more transactivation activity
# Details: library: random library
row,Substance,growth estimate
1,LVRKDLHRGSLS,< -0.25
2,DAWALGNLVLHTVALLCNMH,< -0.25
3,CTYASIRAISHGRPEGILSD,< -0.25
4,EREILRMRVGVTPARCVNGR,< -0.25
5,HLRSLSAVPTLYLHCEDILV,< -0.25
6,VVHV,< -0.25
7,HRDCL,< -0.25
8,NTGTNL,< -0.25
9,RLRSDAFGMLGPRTSSDPFL,< -0.25
10,ATDLLKSIHLVFTDSWSPSG,< -0.25
11,IKR,< -0.25
12,WQIEHHECVFIHSQRLHRIP,< -0.25
13,GHMPGARCVTDVGWHRNPNL,< -0.25
14,YCLVLLCAYGELLDTYGRKP,< -0.25
15,LKDGQAKIRCWLSLGPCIYT,< -0.25
16,EFAVPVAWDRRSNISAVLAV,< -0.25
17,DGRTLCGQTRCRYLTQPTAH,< -0.25
18,RHRTNKRGQAVDL,< -0.25
19,WGYWMRDMNQCLVGCSADTG,< -0.25
20,WRGSMEHIRITFLV,< -0.25
21,ADTTNPFSFPRLVVGTEGTG,< -0.25
22,IQEIRAPRSHATDTSGDQRW,< -0.25
23,TSLRIHW,< -0.25
24,ELKRAHYGNQSGDGTQTDSG,< -0.25
25,RHS,< -0.25

row,Substance,growth estimate
1,RSSFHCSTAHRRLIAGCVTR,< -0.25
2,ESRMRANDTSRTLIRLIDVC,< -0.25
3,DPGTMLVCVTVER,< -0.25
4,MAAEHVSQSPLYT,< -0.25
5,PRLGSSRGSWYRLAVFLVSS,< -0.25
6,SDLWEQVCAETLANCYSTTV,< -0.25
7,WLKESAM,< -0.25
8,CVLRWQSLIIVDGFGDPQPR,< -0.25
9,GRTSRFVYLSVRFCKSRQLD,< -0.25
10,YCVSPLCETTTTPGLMYERS,< -0.25
11,DNMGDIVRGARCKTGARCVE,< -0.25
12,RVTSLALYLGEFIAHWLTSG,< -0.25
13,PGTD,< -0.25
14,EGAWC,< -0.25
15,VEAYGHSIVCKLGVCWGRVF,< -0.25
16,DSIKSG,< -0.25
17,FEHII,< -0.25
18,ILYHGKRPATLLYAAQRETS,< -0.25
19,NRCLVKYKNR,< -0.25
20,RVFGLRVKLT,< -0.25
21,SVVGGPSRYPNYARL,< -0.25
22,VAYVDAPAGSARICRDHVIT,< -0.25
23,RLLAGTQQLLTCDLSS,< -0.25
24,GGRYGIGNVSTGSSGNC,< -0.25
25,RSQIVQPGNVGEQPMSVAGS,< -0.25

row,Substance,growth estimate
1,GSTAIQPLRCR,< -0.25
2,KTGLLGNYQSLSGVQRAKFT,< -0.25
3,GTPIR,< -0.25
4,SDSFALTLLGATA,< -0.25
5,RSLEVQELHQRG,< -0.25
6,CSQS,< -0.25
7,TPDGQWDTLQRFKPRPHLAR,< -0.25
8,FPPGEPRPRFLRFESLHDMD,-0.246
9,WGRVKQVIGPIRP,< -0.25
10,SVGRRKFLNLARFSRYSQTQ,< -0.25
11,LLLKRTYGR,< -0.25
12,GLDWGRRLVAGARSRLTLQP,< -0.25
13,FSSMQAARPHLGLDVC,-0.243
14,PGYGIHLNDQQRGIGVTPSI,< -0.25
15,DCHVGRFVK,< -0.25
16,DVEELDTDAVAATGSSARGS,< -0.25
17,NSTEPPLPSGVFWHGHAARA,< -0.25
18,LYTVGKQLV,< -0.25
19,TGQGGLLSDERQLNEDT,< -0.25
20,HPENASRRGAEEESS,< -0.25
21,TTKVSFVRVGNRTSCLRVHL,< -0.25
22,GSRFRGLPRATYGSFICDLA,< -0.25
23,HNGEAFSHRVVFHLVRQQRW,< -0.25
24,ECKLRGLDCAPGFKQSLRVF,< -0.25
25,HSKHRPCPLRCDAHASRAGD,< -0.25

row,Substance,growth estimate
1,CRPGRPRPSETKIGSPRFLW,< -0.25
2,AAARSWWTSHRAVSSKSCDA,< -0.25
3,GKRLP,< -0.25
4,YTDASVSIPLEHRAGGRGAI,< -0.25
5,ISINRYNEAGCRIKA,< -0.25
6,MLCSCRGCKDQCVADVTSSE,< -0.25
7,DVIMPVAPMGVVLVQNLRTQ,< -0.25
8,HRQPMLAWSLMTNFSLTILL,< -0.25
9,STGLAEMTTRRVL,< -0.25
10,AQSSCI,0.181
11,ISRVQRPQGPADCKVFQGVP,< -0.25
12,FLEIRFCGLTSEAAASH,< -0.25
13,LRVAAYL,< -0.25
14,TIRVTINL,< -0.25
15,QSDITTRVVATAMCGAWIGV,< -0.25
16,AVTESSTAGALCAGPTIFAP,< -0.25
17,GPATKGEEGRVLHTFDNSTG,< -0.25
18,APWTDYADPFWCRAYPAYGE,-0.0476
19,ARRIFVWYHVGDVE,< -0.25
20,RYTANVGLRICTACFSIESS,< -0.25
21,RGQTNRPHDRNGSVPSAECS,< -0.25
22,VLQIFVSLTIISFRGFRPAS,< -0.25
23,DRAPRGHGIEYLFGQCVGST,< -0.25
24,LRQVGQGPS,< -0.25
25,LMCSKLGTSGNSLGRRSPPS,-0.243

row,Substance,growth estimate
1,RDVGYNVHIRSRKGRPA,< -0.25
2,RILVIMAFNWLRLKDVGTSR,< -0.25
3,LRQF,< -0.25
4,YCIRRP,< -0.25
5,RFPIH,-0.168
6,PIPLRRRDCALGPRALCLVL,< -0.25
7,VSLCFYVFAGTGVKVAGYCD,< -0.25
8,LITKQL,< -0.25
9,EMILVGREAAKRFMLCVP,-0.0073
10,LSGSLGTG,< -0.25
11,PNVRVDAPTLYP,< -0.25
12,LASLVRTEMLWRFLQ,< -0.25
13,VWASDTLKRTPYEEGLRPTL,< -0.25
14,SNPEYCTWITANSATAYIPH,< -0.25
15,PWTSEVQRSR,< -0.25
16,SRVWPHLSNPCGYIDCAPLG,< -0.25
17,CRQFRANHREKRLLQKLRHD,< -0.25
18,VIVILISVFGHLWGMT,< -0.25
19,QVLR,< -0.25
20,SIEKEVERRGRRTLPLNP,< -0.25
21,AGVRS,< -0.25
22,NLNNT,< -0.25
23,DSQLSKTLTASVPSMVALAY,< -0.25
24,QVQLHRRHPMH,< -0.25
25,VQHGGGSWLVLDVVGGPDAV,< -0.25

row,Substance,growth estimate
1,VVIRRGTSSPFWICPL,-0.245
2,HLIAGSRPSGRRVYMLGRRQ,< -0.25
3,RMLRYGVTLTITHGLLIPCY,-0.126
4,RTMSLL,< -0.25
5,YVSRLRCICAGHGSEGYPVG,< -0.25
6,CNSHGFWIRPFGLVSNGVDG,-0.198
7,SFQYTEGSARGQSIGKVESI,< -0.25
8,YFVRVSMLMP,< -0.25
9,RARYRRECRPFHWKGKDECL,< -0.25
10,GICWISYRKAEAYIDFACVH,< -0.25
11,IEYGSGVRSTGSVRRRSYIG,< -0.25
12,LERGVKHYVFWQNTLTARDS,< -0.25
13,GCEFDTRKLALFERITG,< -0.25
14,DIALGVCQILKRAREYDSAR,< -0.25
15,LGVCG,< -0.25
16,YDGNFLMDNEVSPLRRRQWS,< -0.25
17,IYQCSDFSEFHFRS,-0.225
18,GVLVATFRVYSDMRNGRTA,-0.163
19,SDCGPLRGGLTG,< -0.25
20,NNWPINTNLATVR,< -0.25
21,DQSRFLALGGVRSPHLCHAG,< -0.25
22,HQRRPGSTWFSDPITYPGLS,< -0.25
23,RYEMRTSNRQRCGCTRGLHW,< -0.25
24,HSWF,< -0.25
25,TVKCRCEKGLVPDV,< -0.25

row,Substance,growth estimate
1,TCLSFS,< -0.25
2,DPTTTFERSVRVARTLANSP,< -0.25
3,NITTMRMVVMRIKP,< -0.25
4,GRLG,< -0.25
5,SVNLGQAVIQADPPSGALRR,< -0.25
6,DVRYDGPYYHRQKVRL,< -0.25
7,HVGRYR,< -0.25
8,HATLRG,< -0.25
9,TSSNVTVLTGVTGQI,< -0.25
10,SCAWTTLRTCASLWRTALGL,-0.172
11,KFLNRPPHVDLRIC,< -0.25
12,PFYPVMQSRSTEVTLGNLDR,< -0.25
13,AVGLMGRGPCTFSLWWLSFG,< -0.25
14,DQVDSVPQGGIGLGTVRFHL,< -0.25
15,ASPE,< -0.25
16,QSIPLGGARLSF,< -0.25
17,RAGGEGGVAQRPRTVRWRKR,< -0.25
18,SPRWVGYMLNTV,< -0.25
19,FRGKRGTVWCFKQLVYRSFD,< -0.25
20,TLTRVKSRRLEVTPHTN,< -0.25
21,YRGTE,< -0.25
22,LNIVY,< -0.25
23,SLAIILLS,< -0.25
24,CPGLYPKA,< -0.25
25,VYLECVGHRTFFAKLSE,-0.246

# A different layout for some results above:
row	Substance	growth estimate
20	SIEKEVERRGRRTLPLNP	< -0.25
21	AGVRS	< -0.25
22	NLNNT	< -0.25
23	DSQLSKTLTASVPSMVALAY	< -0.25
24	QVQLHRRHPMH	< -0.25
25	VQHGGGSWLVLDVVGGPDAV	< -0.25
1	VVIRRGTSSPFWICPL	-0.245
2	HLIAGSRPSGRRVYMLGRRQ	< -0.25
3	RMLRYGVTLTITHGLLIPCY	-0.126
4	RTMSLL	< -0.25
5	YVSRLRCICAGHGSEGYPVG	< -0.25
6	CNSHGFWIRPFGLVSNGVDG	-0.198
7	SFQYTEGSARGQSIGKVESI	< -0.25
8	YFVRVSMLMP	< -0.25
9	RARYRRECRPFHWKGKDECL	< -0.25
11	IEYGSGVRSTGSVRRRSYIG	< -0.25
12	LERGVKHYVFWQNTLTARDS	< -0.25
13	GCEFDTRKLALFERITG	< -0.25
14	DIALGVCQILKRAREYDSAR	< -0.25
15	LGVCG	< -0.25
16	YDGNFLMDNEVSPLRRRQWS	< -0.25
17	IYQCSDFSEFHFRS	-0.225
18	GVLVATFRVYSDMRNGRTA	-0.163
19	SDCGPLRGGLTG	< -0.25
20	NNWPINTNLATVR	< -0.25
21	DQSRFLALGGVRSPHLCHAG	< -0.25
22	HQRRPGSTWFSDPITYPGLS	< -0.25
23	RYEMRTSNRQRCGCTRGLHW	< -0.25
24	HSWF	< -0.25
25	TVKCRCEKGLVPDV	< -0.25
1	TCLSFS	< -0.25
2	DPTTTFERSVRVARTLANSP	< -0.25
4	GRLG	< -0.25
5	SVNLGQAVIQADPPSGALRR	< -0.25
6	DVRYDGPYYHRQKVRL	< -0.25
7	HVGRYR	< -0.25
8	HATLRG	< -0.25
9	TSSNVTVLTGVTGQI	< -0.25
10	SCAWTTLRTCASLWRTALGL	-0.172
11	KFLNRPPHVDLRIC	< -0.25
12	PFYPVMQSRSTEVTLGNLDR	< -0.25
13	AVGLMGRGPCTFSLWWLSFG	< -0.25
14	DQVDSVPQGGIGLGTVRFHL	< -0.25
15	ASPE	< -0.25
16	QSIPLGGARLSF	< -0.25
17	RAGGEGGVAQRPRTVRWRKR	< -0.25
18	SPRWVGYMLNTV	< -0.25
19	FRGKRGTVWCFKQLVYRSFD	< -0.25
21	YRGTE	< -0.25
22	LNIVY	< -0.25
23	SLAIILLS	< -0.25
24	CPGLYPKA	< -0.25
25	VYLECVGHRTFFAKLSE	-0.246

# Additional entries follow:

row,Substance,growth estimate
1,VCSTAHLI,< -0.25
2,TEASA,< -0.25
3,WVLPNRSMSPFWRGARISLA,< -0.25
4,TRRFDHLVSPCSG,< -0.25
5,IHVVLVLLP,< -0.25
6,AYIITGIVRISVLADAHAGP,< -0.25
7,CGRQ,< -0.25
8,VECLTIPLEARLRLVGCRRL,< -0.25
9,TCARNTCLETDGHTSVVGFL,< -0.25
10,ACSQSDQASKKASSPLKRRP,< -0.25
11,TCQPCAFYQIQTYRETGLAA,< -0.25
12,YSVET,< -0.25
13,SEGDK,< -0.25
14,RQNQI,< -0.25
15,GIGGDVEACLRELVSHQAIA,< -0.25
16,VLARLAVTSRWLFRYG,< -0.25
17,TSSWTRADRFWEQHTERLIY,< -0.25
18,WKNVRRRGLLPGSLSRLH,< -0.25
19,VDSGDNG,-0.246
20,VPRLVYFAIRFLAEI,< -0.25
21,TEQSVMV,< -0.25
22,TVLILVR,< -0.25
